Laboratory results reported in publication PMC7156037.
These are yes or no findings as the source states them, for the method shown. Binding seen in cells or lysates may run through a third protein. A yes stands for co-enrichment or nearness to the bait. Other partners may have been found. Tags and fused reporters may be left off the sequences shown.

Protein sequences, listed by entry. Tags and fused reporters are not part of them. Lines headed by an entry give the natural chain unless they say otherwise; changes in a name come on top.
UniProt Q9LEV0: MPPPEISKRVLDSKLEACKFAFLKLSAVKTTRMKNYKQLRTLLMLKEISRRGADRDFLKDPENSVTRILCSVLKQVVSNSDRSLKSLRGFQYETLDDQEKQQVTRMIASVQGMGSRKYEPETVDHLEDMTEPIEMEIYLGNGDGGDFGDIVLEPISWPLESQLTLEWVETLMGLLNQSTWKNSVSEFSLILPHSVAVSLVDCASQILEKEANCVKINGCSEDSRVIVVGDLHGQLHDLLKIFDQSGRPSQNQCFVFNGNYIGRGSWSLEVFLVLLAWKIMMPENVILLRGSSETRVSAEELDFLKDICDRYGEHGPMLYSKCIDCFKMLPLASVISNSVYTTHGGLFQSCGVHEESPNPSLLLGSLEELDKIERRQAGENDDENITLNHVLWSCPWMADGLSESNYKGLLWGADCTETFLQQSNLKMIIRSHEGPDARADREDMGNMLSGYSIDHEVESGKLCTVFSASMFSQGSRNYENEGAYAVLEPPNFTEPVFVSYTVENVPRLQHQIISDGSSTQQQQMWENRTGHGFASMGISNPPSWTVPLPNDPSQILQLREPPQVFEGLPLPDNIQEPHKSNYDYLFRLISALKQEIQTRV

T1: … OF … (MAIN), FLAG-tagged (A. thaliana) (UniProt Q9LMT7)
T1 sequence: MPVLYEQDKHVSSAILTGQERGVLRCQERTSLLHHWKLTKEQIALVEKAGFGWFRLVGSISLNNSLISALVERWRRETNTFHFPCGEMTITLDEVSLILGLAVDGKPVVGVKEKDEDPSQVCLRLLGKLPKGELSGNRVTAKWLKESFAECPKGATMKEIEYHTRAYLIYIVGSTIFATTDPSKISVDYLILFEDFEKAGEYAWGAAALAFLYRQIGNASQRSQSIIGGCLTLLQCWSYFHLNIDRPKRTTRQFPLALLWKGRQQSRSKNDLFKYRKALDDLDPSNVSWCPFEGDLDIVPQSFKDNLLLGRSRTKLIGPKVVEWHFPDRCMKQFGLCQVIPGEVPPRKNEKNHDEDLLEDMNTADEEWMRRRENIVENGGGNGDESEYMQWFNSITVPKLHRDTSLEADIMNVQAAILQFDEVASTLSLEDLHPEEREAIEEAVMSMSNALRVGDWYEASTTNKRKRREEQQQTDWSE

T2: MAIN-LIKE 1 (MAIL1), FLAG-tagged (A. thaliana) (UniProt Q9SK32)
T2 sequence: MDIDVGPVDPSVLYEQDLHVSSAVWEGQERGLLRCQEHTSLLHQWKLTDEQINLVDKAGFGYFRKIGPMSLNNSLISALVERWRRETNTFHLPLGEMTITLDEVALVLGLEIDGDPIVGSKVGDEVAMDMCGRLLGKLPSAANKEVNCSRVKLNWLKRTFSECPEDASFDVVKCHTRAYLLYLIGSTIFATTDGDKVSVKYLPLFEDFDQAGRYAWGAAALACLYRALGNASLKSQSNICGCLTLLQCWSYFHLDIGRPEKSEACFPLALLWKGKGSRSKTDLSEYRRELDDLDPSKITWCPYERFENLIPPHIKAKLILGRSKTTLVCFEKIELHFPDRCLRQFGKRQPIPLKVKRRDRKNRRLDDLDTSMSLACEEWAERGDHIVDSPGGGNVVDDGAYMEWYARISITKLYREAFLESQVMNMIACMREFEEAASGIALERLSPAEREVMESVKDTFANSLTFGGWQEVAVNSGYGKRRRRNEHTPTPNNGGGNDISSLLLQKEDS


Key:
[1] = molecular target: T1, … OF … (MAIN), FLAG-tagged (A. thaliana); experiment: affinity purification with mass spectrometry; FLAG-tagged bait captured on M2 magnetic FLAG-beads from extract of 3-week-old seedlings; IP buffer 50mM Tris HCl pH 7.6, 150mM NaCl, 5mM MgCl2, 0.1% Nonidet P-40, 10% glycerol, 0.5mM DTT; 90 min at 4°C; seven washes; eluted with 3x-FLAG peptides; WT plants as negative control
[2] = molecular target: T2, MAIN-LIKE 1 (MAIL1), FLAG-tagged (A. thaliana); experiment: as above

Molecule	binding [1]	binding [2]
PP7-like (PP7L), endogenous (from UniProt Q9LEV0)	binds	binds
MAIN-LIKE 1 (MAIL1), endogenous (protein, UniProt Q9SK32 1-509) MDIDVGPVDPSVLYEQDLHVSSAVWEGQERGLLRCQEHTSLLHQWKLTDEQINLVDKAGFGYFRKIGPMSLNNSLISALVERWRRETNTFHLPLGEMTITLDEVALVLGLEIDGDPIVGSKVGDEVAMDMCGRLLGKLPSAANKEVNCSRVKLNWLKRTFSECPEDASFDVVKCHTRAYLLYLIGSTIFATTDGDKVSVKYLPLFEDFDQAGRYAWGAAALACLYRALGNASLKSQSNICGCLTLLQCWSYFHLDIGRPEKSEACFPLALLWKGKGSRSKTDLSEYRRELDDLDPSKITWCPYERFENLIPPHIKAKLILGRSKTTLVCFEKIELHFPDRCLRQFGKRQPIPLKVKRRDRKNRRLDDLDTSMSLACEEWAERGDHIVDSPGGGNVVDDGAYMEWYARISITKLYREAFLESQVMNMIACMREFEEAASGIALERLSPAEREVMESVKDTFANSLTFGGWQEVAVNSGYGKRRRRNEHTPTPNNGGGNDISSLLLQKEDS	binds	–
